Assay results as given in article PMC3440356.
These are yes or no findings as the source states them, for the method shown. For part of these data: In cells and extracts the contact can be indirect. Some entries that bind do so weakly or less than the wild type. For part of these data: Where a sequence is shown, tags or fusion partners need not be part of it.

The chains behind the UniProt entries cited, without tags or fusion partners.
UniProt O00750: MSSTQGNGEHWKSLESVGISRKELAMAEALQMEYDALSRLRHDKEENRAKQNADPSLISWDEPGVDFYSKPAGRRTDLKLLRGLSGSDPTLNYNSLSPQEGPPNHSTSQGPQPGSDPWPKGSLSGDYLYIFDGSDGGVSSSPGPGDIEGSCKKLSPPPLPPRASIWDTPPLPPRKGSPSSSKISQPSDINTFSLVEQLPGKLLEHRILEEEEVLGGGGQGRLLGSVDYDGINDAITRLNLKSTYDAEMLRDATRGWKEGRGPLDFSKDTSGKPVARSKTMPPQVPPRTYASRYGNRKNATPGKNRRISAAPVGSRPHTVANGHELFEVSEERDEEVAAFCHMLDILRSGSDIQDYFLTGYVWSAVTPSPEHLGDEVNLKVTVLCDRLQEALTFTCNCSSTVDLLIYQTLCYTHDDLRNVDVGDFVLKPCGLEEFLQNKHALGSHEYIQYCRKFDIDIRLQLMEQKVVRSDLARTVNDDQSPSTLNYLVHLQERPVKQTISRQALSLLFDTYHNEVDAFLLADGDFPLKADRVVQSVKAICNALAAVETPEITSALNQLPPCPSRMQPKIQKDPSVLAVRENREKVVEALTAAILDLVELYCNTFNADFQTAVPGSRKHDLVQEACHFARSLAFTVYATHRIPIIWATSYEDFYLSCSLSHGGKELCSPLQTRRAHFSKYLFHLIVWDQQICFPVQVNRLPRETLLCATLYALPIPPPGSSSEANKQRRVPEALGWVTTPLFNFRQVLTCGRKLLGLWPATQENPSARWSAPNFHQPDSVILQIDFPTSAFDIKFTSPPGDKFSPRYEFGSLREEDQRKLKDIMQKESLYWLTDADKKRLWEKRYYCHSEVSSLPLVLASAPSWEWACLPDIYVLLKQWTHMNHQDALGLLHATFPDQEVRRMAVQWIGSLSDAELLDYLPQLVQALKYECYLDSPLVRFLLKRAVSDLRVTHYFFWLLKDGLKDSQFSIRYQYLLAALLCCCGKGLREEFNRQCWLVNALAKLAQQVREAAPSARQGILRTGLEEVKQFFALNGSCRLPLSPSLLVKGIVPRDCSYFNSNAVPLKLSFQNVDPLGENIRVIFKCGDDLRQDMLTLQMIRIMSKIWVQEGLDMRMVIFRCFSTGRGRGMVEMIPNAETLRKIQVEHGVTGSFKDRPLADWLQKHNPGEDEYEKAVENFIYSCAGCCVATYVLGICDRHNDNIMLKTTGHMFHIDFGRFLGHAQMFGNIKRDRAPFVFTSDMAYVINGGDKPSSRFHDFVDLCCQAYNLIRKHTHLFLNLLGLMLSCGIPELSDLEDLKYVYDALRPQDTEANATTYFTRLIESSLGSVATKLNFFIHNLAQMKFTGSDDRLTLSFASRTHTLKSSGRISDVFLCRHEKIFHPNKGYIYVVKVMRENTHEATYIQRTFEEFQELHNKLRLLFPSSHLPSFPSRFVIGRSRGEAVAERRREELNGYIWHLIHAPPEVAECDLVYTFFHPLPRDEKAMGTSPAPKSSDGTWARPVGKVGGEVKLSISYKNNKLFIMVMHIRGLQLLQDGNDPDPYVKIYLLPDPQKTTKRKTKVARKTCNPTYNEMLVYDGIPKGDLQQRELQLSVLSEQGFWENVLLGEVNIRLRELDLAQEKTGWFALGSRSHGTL
UniProt P62993: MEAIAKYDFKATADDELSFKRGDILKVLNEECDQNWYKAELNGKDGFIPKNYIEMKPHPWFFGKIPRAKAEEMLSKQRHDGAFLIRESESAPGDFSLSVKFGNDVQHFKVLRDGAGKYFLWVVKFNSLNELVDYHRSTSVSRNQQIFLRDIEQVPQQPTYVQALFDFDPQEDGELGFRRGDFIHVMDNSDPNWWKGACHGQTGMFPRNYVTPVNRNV
UniProt Q60631: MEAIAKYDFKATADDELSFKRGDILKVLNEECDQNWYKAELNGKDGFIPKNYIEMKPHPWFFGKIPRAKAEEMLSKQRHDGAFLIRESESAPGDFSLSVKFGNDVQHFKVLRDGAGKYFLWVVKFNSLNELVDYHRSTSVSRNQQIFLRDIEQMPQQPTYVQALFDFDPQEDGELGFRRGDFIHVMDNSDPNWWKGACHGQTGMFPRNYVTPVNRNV

Columns and labels:
[1] = target: Glu-tagged PI3KC2β wild-type (UniProt O00750); assay: co-IP; lysates of NIH3T3 cells stably expressing Glu-PI3KC2β WT or Myc-PI3KC2β DN; IP with anti-C2β, anti-Glu (EE) tag or anti-Dbl antibody, 2 h at 4°C, immunoblot; also serum-starved cells stimulated with EGF or PDGF (20 ng/ml) for 5 to 30 min
GST-fused Grb2 = GST-fused Grb2 (UniProt P62993); assay: pull-down; GST-NT-C2β or GST-Grb2 immobilised on glutathione beads, incubated 2 h at 4°C with lysates (Triton 1%) of HEK293 cells transfected with HA-proto-Dbl or untransfected; immunoblot; only the target purified
[2] = target: T1, GST-fused Dbl PH domain (human) (UniProt P10911); assay: pull-down; in vitro binding assay: GST-tagged proteins immobilised on glutathione-sepharose beads, incubated with soluble thrombin-cleaved NT-C2β and Grb2, 2 h at 4°C, 1% Brij 96 buffer (also Triton 1%); immunoblot; both purified
T1 sequence: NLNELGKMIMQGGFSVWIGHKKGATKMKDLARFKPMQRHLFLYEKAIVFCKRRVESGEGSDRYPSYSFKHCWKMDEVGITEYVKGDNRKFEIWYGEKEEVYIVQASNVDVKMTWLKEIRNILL

Substance: endogenous Grb2 (NIH3T3) (from UniProt Q60631 1-217)
- binding [1]: binds

Substance: endogenous PI3KC2β (IMR5, HEK293) (from UniProt O00750 1-1634) (enzyme)
- binding (GST-fused Grb2): binds

Substance: soluble Grb2 (from UniProt P62993 1-217)
- binding [2]: no binding
